This passage reports cell number change and AC50 results from PubChem BioAssay AID2685 (National Center for Advancing Translational Sciences (NCATS), 2010).

This is one part of the list. The main result of the screen is listed elsewhere. These columns were measured beside it and carry no call. The list favours compounds with an active or inconclusive main result. The note in brackets gives the kind of curve behind each potency; many fits are weak.

What is called AC50 is the concentration giving half of the maximal activity seen. A high value points to activity only at high concentration.

This assay in a line: qHTS Assay for Lipid Storage Modulators in Drosophila S3 Cells.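 For cell number change: cells counted by Cell Tracker Red CMTPX staining in the red channel.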 As to conditions: BODIPY lipid droplet fluorescence, 18-24 h; for cell number change: measured here: cell count max response, cells fed with added oleic acid. The essentials:
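Laser-scanning cytometry quantifies lipid droplet accumulation (500–530 nm total intensity; droplet/cell object ratio) in oleic acid-fed (400 uM added) Drosophila S3 cells treated with a concentration series. 20 uM Triacsin C defined 100% inhibition.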
For orientation: qHTS replaces the single test concentration by a dilution series.

Setting [1] is: measured here: cell number channel AC50, cells fed with added oleic acid.
Where [2] appears, read: measured here: lipid fluorescence (Fed channel) AC50, cells fed with added oleic acid.

Turning to `O=C(C1CC1)N1N=C2CCCCC2C1(O)C(F)(F)F` (configuration not stated), the cell number change stood at 16.4%. Further, the AC50 under setting [1] is 0.0058 µM [rising, full curve, poor fit].

As to `NC(=S)NN=C1c2cc(S(=O)(=O)N3CCOCC3)ccc2-c2ccc(S(=O)(=O)N3CCOCC3)cc21`, the cell number change was -58.8%. Under setting [1], the half-maximal activity concentration (AC50) was 2.59 µM [falling, partial curve]. For the same molecule, the AC50 under setting [2] is 4.61 µM [falling, full curve].

In the case of `Cc1ccc(N2C(=O)/C(=C/c3cccnc3)SC2=S)cc1`, the cell number change is -3.18%. The AC50 under setting [2] was 29.1 µM [rising, single point].

With `CN(c1cccc(Cl)c1)S(=O)(=O)c1cccc(C(=O)Nc2ccc3c(c2)CCC3)c1`, the cell number change is -9.78%.

For `O=C(c1cc(-c2ccccc2Cl)on1)N1CCCC1`, the cell number change was 14.5%.

As to `O=C(COC(=O)/C=C/c1cccc(F)c1)Nc1ccc(Cl)cn1`, the cell number change amounted to 21.7%. In addition, the AC50 under setting [2] was 0.00517 µM [rising, full curve, poor fit].

With `Cc1cc(C)n(CCO)c(=O)n1`, the cell number change is -22.9%. For the same molecule, under setting [1], the AC50 was 0.116 µM [falling, full curve, poor fit]. In addition, under setting [2], the AC50 is 2.06 µM [falling, full curve, poor fit].

In the case of `COC(=O)c1cc(N2CCN(C)CC2)nc2ccccc12`, the cell number change stood at 49.9%. Also, the AC50 under setting [1] is 0.92 µM [rising, full curve, poor fit]. Besides, the half-maximal activity concentration (AC50) under setting [2] is 29.1 µM [rising, partial curve, poor fit].

On to `Cc1ccc(C(=O)C[n+]2ccc(-c3nnc4n3CCC4)cc2)cc1`, for which the cell number change was determined as 7.22%. The AC50 under setting [2] was 18.4 µM [rising, single point].

Turning to `COc1cccc(OCCNc2cc(N3CCOCC3)ccc2[N+](=O)[O-])c1`, the cell number change turned out to be 11.6%. Besides, the AC50 under setting [1] was 3.66 µM [rising, single point]. The AC50 under setting [2] is 8.2 µM [rising, partial curve].

Regarding `CC1CCCCC12NC(=O)N(CC(=O)OCC(=O)NCc1ccc(F)cc1)C2=O` (configuration not stated), the cell number change stood at 2.14%. Also, the AC50 under setting [2] is 1.84 µM [rising, single point].

For `Cn1cccc1C(=O)NC(=O)COC(=O)CC12CC3CC(CC(C3)C1)C2`, the cell number change is -8.52%. Besides, under setting [1], the AC50 is 0.651 µM [falling, full curve, poor fit].

In the case of `COc1ccc(-c2oc3ccc(-c4cc(OC)c(OC)c(OC)c4)cc3c2-c2ccc(OC)nc2)cc1`, the cell number change came to 34.3%. For the same molecule, under setting [1], the AC50 was 16.4 µM [rising, single point]. Further, under setting [2], the AC50 is 9.2 µM [rising, partial curve].

For the molecule `COc1ccc(NCc2n[nH]c(=O)c3ccccc23)cc1`, the cell number change amounted to 89.2%. In addition, the half-maximal activity concentration (AC50) under setting [1] is 14.6 µM [rising, partial curve]. Under setting [2], the concentration at half-maximal activity (AC50) was 16.4 µM [rising, partial curve].

`CC1=C(C(=O)Nc2ccc(C)cc2)C(c2ccc(C)o2)C2=C(CC(C)(C)CC2=O)N1` (configuration not stated): the concentration at half-maximal activity (AC50) under setting [2] is 6.51 µM [falling, single point].

Regarding `CCCNC(=O)c1cc(SC)ccc1Cl`, the cell number change was -7.64%.

Turning to `CC1CCCC(NC(=O)CN2CCN(S(=O)(=O)c3cccs3)CC2)C1C` (configuration not stated), the cell number change was 7.32%. In addition, the half-maximal activity concentration (AC50) under setting [2] was 0.651 µM [rising, full curve, poor fit].

As for `CCN(CC)S(=O)(=O)c1ccc(NS(=O)(=O)c2ccc3oc(=O)[nH]c3c2)cc1`, the cell number change is 18.4%.

Turning to `Cc1ccccc1Nc1c([N+](=O)[O-])ccc2nonc12`, the cell number change was 2.78%. For the same molecule, the AC50 under setting [2] is 29.1 µM [rising, single point].

For the molecule `COc1ccc(C)cc1NC(=O)C1CCCN(S(=O)(=O)c2ccc3c(c2)CCCN3C(C)=O)C1` (configuration not stated), the cell number change worked out at 3.67%. Moreover, the AC50 under setting [2] is 0.164 µM [falling, full curve, poor fit].

On to `Cc1nn2c(N3CCN(C)CC3)cc(C(C)(C)C)nc2c1-c1ccccc1`, for which the cell number change is -32.4%. The AC50 under setting [1] is 29.1 µM [falling, single point]. The AC50 under setting [2] is 18.4 µM [falling, single point].

With `CC1CCCN(C(=O)C2CC(=O)N(c3ccc(Cl)cc3)C2)C1` (configuration not stated), the cell number change turned out to be 1.8%. Also, under setting [2], the AC50 was 6.51 µM [falling, single point].

`CC(=O)c1ccc2c(c1)OCCOCCOCCOCCO2`: the cell number change was -43.3%. Moreover, the AC50 under setting [1] was 0.651 µM [falling, full curve].

With `O=C(Nc1cccc(-c2nc3cccnc3s2)c1)C1c2ccccc2Oc2ccccc21`, the cell number change was -39.7%. Further, the AC50 under setting [1] is 4.11 µM [falling, full curve]. Further, the AC50 under setting [2] was 4.11 µM [falling, full curve].

On to `CCOc1ccc(OCC(=O)OCC(=O)Nc2ccc3[nH]c(=O)[nH]c3c2)cc1`, for which the cell number change was -15.6%. Also, the AC50 under setting [2] was 25.9 µM [falling, partial curve, poor fit].

Regarding `COc1ccccc1NS(=O)(=O)c1ccc(Br)s1`, the cell number change was -14.6%. Besides, under setting [1], the AC50 is 1.84 µM [falling, partial curve].

Take `Cc1nn(CC(=O)NCC(C)c2ccccc2)c(=O)c2cc(-c3ccccc3)nn12` (configuration not stated): the cell number change was -4.72%. The AC50 under setting [2] is 1.64 µM [rising, full curve].

For the molecule `Cc1cc(CNC(=O)c2ccc3oc(C(C)C)nc3c2)nn1C`, the cell number change is 4.28%. Besides, the AC50 under setting [2] is 7.31 µM [rising, single point].

`CC(C)[C@H](NC(=O)c1ccccc1)C(=O)OCc1nc2scc(-c3ccccc3)c2c(=O)[nH]1`: the cell number change is 33.8%. The AC50 under setting [1] is 11.6 µM [rising, partial curve]. The AC50 under setting [2] was 16.4 µM [rising, single point].

For `O=C1c2ccccc2NC(c2ccc(O)cc2)N1Cc1ccco1` (configuration not stated), the cell number change was 55.3%. The concentration at half-maximal activity (AC50) under setting [1] was 8.2 µM [rising, partial curve]. The AC50 under setting [2] is 6.51 µM [rising, partial curve, poor fit].

In the case of `O=C(c1cc2nc(-c3ccco3)cc(C(F)(F)F)n2n1)N1CCc2ccccc2C1`, the cell number change worked out at 21.7%. Also, the half-maximal activity concentration (AC50) under setting [1] was 0.731 µM [rising, full curve]. Also, the AC50 under setting [2] was 0.731 µM [rising, full curve].

As for `Cc1cccc(OCC(=O)Nc2ccc(N3CCN(C(=O)c4ccccc4)CC3)cc2)c1C`, the cell number change was 15.5%. Further, the AC50 under setting [2] is 6.51 µM [rising, single point].

As for `COC(=O)c1cc(C(=O)Nc2nc3ccccc3[nH]2)cc([N+](=O)[O-])c1`, the cell number change stood at 0.833%.

Consider `CCCCCNc1nc(-c2ccccc2)cs1`, for which the cell number change came to 51.4%. In addition, the concentration at half-maximal activity (AC50) under setting [1] was 6.51 µM [rising, partial curve]. Also, the half-maximal activity concentration (AC50) under setting [2] was 4.61 µM [rising, single point].

Take `Cc1ccc(C(=O)C[n+]2ccc(Cc3ccccc3)cc2)cc1`: the cell number change is -14.3%.

For the molecule `CCOC(=O)c1cc2sccc2n1CCCN1C(=O)c2ccccc2C1=O`, the cell number change is -23.8%.

In the case of `COc1cc(OC)cc(C(=O)NC(C(=O)N2CCc3ccccc3C2)C(C)C)c1` (configuration not stated), the cell number change is 5.65%.

On to `CS(=O)(=O)N1N=C(c2ccc(Br)cc2)CC1c1cccs1` (configuration not stated), for which the cell number change amounted to 58.4%. Also, the AC50 under setting [1] was 14.6 µM [rising, partial curve].

As to `CC(C)CC1Nc2ncnc(N3CCN(c4ccccn4)CC3)c2N(Cc2ccc(Br)cc2)C1=O` (configuration not stated), the cell number change was 30.2%. Further, the AC50 under setting [1] is 14.6 µM [rising, single point]. Besides, the concentration at half-maximal activity (AC50) under setting [2] is 16.4 µM [rising, partial curve].

`Cc1nc2ccc(S(=O)(=O)NC(C(=O)Nc3nc4ccc(Cl)cc4s3)C(C)C)cc2s1` (configuration not stated): the cell number change is -38.6%. The half-maximal activity concentration (AC50) under setting [1] was 32.6 µM [falling, partial curve, poor fit].

On to `CC(=O)Nc1ccc(NC(=S)NC(=O)c2ccc([N+](=O)[O-])cc2)cc1`, for which the cell number change was 9.63%. Besides, the concentration at half-maximal activity (AC50) under setting [2] is 23.1 µM [rising, single point].

For the molecule `CCCCC1S/C(=N/N=C/c2cccs2)NC1=O` (configuration not stated), the cell number change was -14.9%.

Consider `Nc1c(C=C2C=CC(=O)C=C2)c(=O)nc2sc(CC(=O)N3CCOCC3)nn12`, for which the cell number change is -13.4%. Also, the half-maximal activity concentration (AC50) under setting [2] is 29.1 µM [rising, single point].

As for `CC(=O)Nc1ccc2c(CSc3nncs3)cc(=O)oc2c1`, the cell number change turned out to be 8.17%. For the same molecule, under setting [2], the AC50 was 1.03 µM [rising, full curve].

As for `CCc1c(O)nc(SCC(=O)Nc2ccc(OC)cc2)n(C2CCCCC2)c1=O`, the cell number change stood at 58.1%. Moreover, the AC50 under setting [1] was 29.1 µM [rising, single point].

With `CC(C)n1nc(C(=O)Oc2cc(Cl)ccc2Cl)c2ccccc2c1=O`, the cell number change is 27.1%. Further, under setting [2], the AC50 is 0.00461 µM [falling, full curve, poor fit].

On to `O=C(COc1ccccc1[N+](=O)[O-])N(Cc1ccco1)C1CCS(=O)(=O)C1` (configuration not stated), for which the cell number change was -25.5%.

Turning to `CCCn1c(=O)c2ccccc2n2c(Sc3nnnn3-c3ccccc3)nnc12`, the cell number change is -23.8%. In addition, under setting [2], the AC50 was 1.84 µM [falling, partial curve, poor fit].

With `COCCCn1c(=NC(=O)c2ccncc2)c(C#N)cc2c(=O)n3cccc(C)c3nc21`, the AC50 under setting [1] was 0.411 µM [rising, full curve] and the AC50 under setting [2] is 0.366 µM [rising, full curve].

Consider `Cc1ccc(S(=O)(=O)N2CCC(C(=O)Nc3nnc(-c4ccco4)s3)CC2)cc1`, for which the cell number change was found to be 18.4%.

On to `CC1(C)CC(NC(=O)c2ccc(Br)o2)CC(C)(C)N1`, for which the cell number change is -26.7%. Moreover, the AC50 under setting [2] was 29.1 µM [rising, partial curve].

As to `CCCCOc1ncnc2c1[nH]c1ccc(F)cc12`, the cell number change was -33.4%. Under setting [1], the AC50 was 18.4 µM [falling, single point]. Further, the AC50 under setting [2] was 18.4 µM [falling, single point].

For the molecule `Cc1ccc(NC(=O)CN2C(=O)C(=O)N(C3CCCC3)C2=O)c(Cl)c1`, the cell number change is -1.29%. Further, the AC50 under setting [1] was 0.461 µM [falling, partial curve, poor fit].

Take `COc1cc(C(=O)NCC(=O)OC(C)C(=O)Nc2ncc(Cl)cc2Cl)cc(OC)c1OC` (configuration not stated): the cell number change was determined as 21.1%.

Take `CC(O)CNc1nc2c(c(=O)n(Cc3ccc(Cl)c(Cl)c3)c(=O)n2C)n1C` (configuration not stated): the cell number change is -27%. Besides, the AC50 under setting [1] is 0.0731 µM [falling, full curve, poor fit]. In addition, the AC50 under setting [2] is 0.326 µM [falling, partial curve, poor fit].

Consider `O=C1CCCC(O)=C1C(C#Cc1ccccc1)C1=C(O)CCCC1=O`, for which the AC50 under setting [2] is 0.146 µM [falling, full curve, poor fit].

As for `Cc1cccc(NC(=O)CSc2nnc(NC(=O)CN3CCOCC3)s2)c1`, the cell number change was -8.73%. For the same molecule, the AC50 under setting [2] is 0.58 µM [falling, single point].

For the molecule `CCc1cccc(CC)c1NC(=S)NCc1ccc2[nH]c(C)cc2c1`, the cell number change was -19%. The concentration at half-maximal activity (AC50) under setting [2] is 14.6 µM [falling, single point].
